# Results reported in patent US4604386A, “3-(alkynylalkyloxy) cephalosporins” (Eli Lilly and Company, priority 1984, dated 1986).
# Key:
# in vivo [1] = conditions: mouse, po, 20 mg/kg
# in vivo [2] = conditions: rat, po, 20 mg/kg
structure (smiles),measurement,setting,value
"CC1=C(C(=O)O)N2C(=O)[C@@H](NC(=O)[C@H](N)c3ccccc3)[C@H]2SC1 [3-methyl, cephalexin monohydrate, reference compound]",concentration at 20 min,in vivo [1],23500 ng/mL
same,concentration at 40 min,in vivo [1],10500 ng/mL
same,concentration at 1 h,in vivo [1],5200 ng/mL
same,concentration at 2 h,in vivo [1],1000 ng/mL
same,concentration at 20 min,in vivo [2],2800 ng/mL
same,concentration at 1 h,in vivo [2],5700 ng/mL
same,concentration at 2 h,in vivo [2],6000 ng/mL
same,concentration at 4 h,in vivo [2],5200 ng/mL
same,concentration at 6 h,in vivo [2],3200 ng/mL
same,concentration at 9 h,in vivo [2],1100 ng/mL
